{
  "source": "paper PMC10163288",
  "binders": {"B1": {"name": "il2ra_site2_2erj_normal_mot_HHH_b2_02303_000000050_0001_43_56_H_._HHH_b1_01620_af2_0001_0000100001_0000001_0 (protein)", "chain": "SSSSSEEEEEVAELAAEAAEIKDPEEAREVLEEALRIAEEINNELLRRYVELALRSVRRASSSSS"}, "B2": {"name": "il2ra_site2_3nfp_sap_17_mot_HHH_b2_08245_000000023_0001_41_55_H_._HHH_b1_01870_0001_0000400055_0000001_0_0001 (protein)", "chain": "SSSDEELAEEFIEWAEEAARLWGDEEVVRAIEELLERFRKEGDPKYAAEVSELLAEIIERGSSSS"}, "B3": {"name": "il2ra_site1_2b5i_normal_mot_HHH_b2_04910_000000118_0001_1_19_H_._HHH_b2_05595_af2_0001_0000100006_0000001_0_af2pred_dldesign_0_af2pred (protein)", "chain": "SSSSSAVKKALELFLEADRLKQEGKEEEAKELLEEAKRLAEEGKANLLVRIIESALEQLESSSSS"}, "B4": {"name": "il2ra_site1_3nfp_sap_18_mot_HHH_b1_02570_af2_000000297_0001_1_19_H_._HHH_b1_00894_0001_0000200014_0000001_0_0001_af2pred_0001_af2pred (protein)", "chain": "SDLEEEVRELIERIKEFAEKYNSPAAKLLAERLEEKARRAEENNDEELLRKVLEQAQESLEAGSS"}, "B5": {"name": "il2ra_site1_3nfp_normal_mot_HHH_b2_08102_af2_000000255_0001_38_50_H_._HHH_b1_04523_0001_0000100003_0000001_0_af2pred_0001_af2pred_swapped (protein)", "chain": "SSSSSEAKEFQELVKELRKLIKEGDEEEARELLERLREIVERRNSRIAKELLEILEKLVESSSSS"}, "B6": {"name": "il2ra_site1_2b5i_normal_mot_HHH_b1_02271_000000068_0001_1_16_H_._HHH_b2_07355_af2_0001_0000100001_0000001_0_af2pred_0001_af2pred (protein)", "chain": "SSSSSSRLELVEELDRLFKLLAEEGDEETLEEVLELFREASRKKDPRLLEEAIELAKRVLSSSSS"}, "B7": {"name": "il2ra_site2_3nfp_sap_13_mot_HHH_b1_08005_000000161_0001_1_17_H_._c09b00986db088d0fdb98887e7bccc3e_0001_af2_0001_0000100007_0000001_0_0001 (protein)", "chain": "SSSSSDVEELLEEVKELIEEGDLYQAAQVLVEASELAAERQDPELARIVLELFLELQKEGSSSSS"}, "B8": {"name": "il2ra_site2_2erj_sap_16_mot_HHH_b1_04407_af2_000000039_0001_42_56_H_._HHH_eva_0415_0001_0000100006_0000001_0_0001 (protein)", "chain": "SSSSDSLLHELYRLANELMRLITEGDEEEAKEILEEAEEVAERLNSENAKEFLKRLKKQLSSSSS"}, "B9": {"name": "il2ra_site2_2erj_sap_18_mot_HHH_b1_07806_000000211_0001_42_56_H_._HHH_b2_00355_0001_0000100005_0000001_0_0001_af2pred_0001_af2pred (protein)", "chain": "SSSSSDREEAEERIEELLEEAKHVPDQKEAMKLLQEAAELADEVNDPELVELVDEVLRRLSSSSS"}, "B10": {"name": "il2ra_site1_2b5i_normal_mot_f5ff40796168375b462bec8614a1db4a_0001_1_000000138_0001_53_65_H_._HHH_b2_02099_0001_0000400009_0000001_0_af2pred_dldesign_0_af2pred (protein)", "chain": "SSSSSNEDYEELVKELLEKAEKIEDPEERRRVLLLARRVAKKGKNPELVAEVEARLAALESSSSS"}, "B11": {"name": "il2ra_site1_1z92_normal_mot_HHH_b1_03515_000000289_0001_1_19_H_._HHH_b1_03515_af2_0001_0000200033_0000001_0_af2pred_0001_af2pred_1_swapped (protein)", "chain": "SSSNEERLRRNAEIIVKIAVEIAQLSEEQEELLRELAEELLERGVSWEEIAKRLDELAAQLGSSS"}, "B12": {"name": "il2ra_site2_3nfp_sap_20_mot_HHH_b1_03376_000000004_0001_41_55_H_._HHH_b1_03616_0001_0001400121_0000001_0_0001 (protein)", "chain": "SSSSDEELEEALRELEEAVEEGDKDAVARLLELVLRLAAELNDEEAAEIVIEIYAQMKKRRSSSS"}, "B13": {"name": "il2ra_site2_2erj_sap_26_mot_678ce523d3521e26f84bf18760a59296_0001_000000113_0001_1_12_H_._f3ed0478f97ec8155d1bdca7070205eb_0001_0001_0000100004_0000001_0_0001 (protein)", "chain": "SSSDREEVEELIEEVEELIRQGDYRRASELLAEAMELALRAQDAELLLRLYELLREIFERNSSSS"}, "B14": {"name": "il2ra_site1_2b5i_normal_mot_HHH_b2_04910_000000118_0001_1_19_H_._HHH_b1_06660_0001_0000100005_0000001_0_af2pred_dldesign_0_af2pred (protein)", "chain": "SSSSSKEVEELFKKAEELYKEGKYEEALKVLKEALELAKKEKQNLAVKFIESALKQIELLLSSSS"}, "B15": {"name": "il2ra_site1_2b5i_normal_mot_HHH_b1_03515_af2_000000188_0001_1_19_H_._HHH_b1_05649_0002_0000200038_0000001_0_af2pred_dldesign_0_af2pred (protein)", "chain": "SSSSSPESIELSDVIEELQEKYGLDEDQYAELRRLAIELHYKGVPLEEIRRRLEERARELGSSSS"}, "B16": {"name": "il2ra_site1_1z92_sap_21_mot_HHH_b1_02849_000000017_0001_22_39_H_._HHH_b2_00342_af2_0001_0000300060_0000001_0_0001 (protein)", "chain": "SSSSDERLERAAEVVVRILVELANLSEEDEERLQELAEELVERGVDSLELIKILDELAVRLSSSS"}, "B17": {"name": "il2ra_site1_3nfp_sap_13_mot_HHH_b2_01582_af2_000000000_0001_1_16_H_._HHH_b2_07153_0001_0000500025_0000001_0_0001_af2pred_0001_af2pred (protein)", "chain": "SSSSSALEVLEERFKEALERGDEHQARVILELLKEAAELHNDEELEKRVRELEEELRELFSSSSS"}, "B18": {"name": "il2ra_site1_3nfp_sap_13_mot_fe74bfd50694bb190af954a823403fd2_0001_af2_000000013_0001_1_15_H_._HHH_b1_00410_0001_0000100002_0000001_0_0001_af2pred_0001_af2pred_s … (protein)", "chain": "SSSSSDEREEIRKLLEEADRLYKNGDPEEARRVLEEALELAKEANNPAMRKFLEQSLRIASSSSS"}, "B19": {"name": "il2ra_site2_2erj_normal_mot_HHH_b1_04462_000000080_0001_40_56_H_._HHH_b1_01567_0001_0000500048_0000001_0 (protein)", "chain": "SSSDTEEDSVEMAERDFRRLVEEGDPERARSLARLAERFAERSGDEEVLEKIRELLEELENSSSS"}, "B20": {"name": "il2ra_site2_3nfp_sap_15_mot_HHH_b1_03605_000000160_0001_1_19_H_._78f3cea537ddf5c4686abc92c323a9bd_0001_af2_0001_0001300041_0000001_0_0001 (protein)", "chain": "SSSSSEEVKELIEEVEELLKKGDDREAAQVLLRASELALEDGDEELLRRLLELYKEIAERRSSSS"}, "B21": {"name": "il2ra_site2_3nfp_normal_mot_49a7c9051cacde34b31d84fabeb7f3ea_0001_af2_000000030_0001_39_52_H_._HHH_b2_06514_af2_0001_0000200005_0000001_0 (protein)", "chain": "SSSSDEEEEELEELQKLLKRLKEEGDRFELLRVLFRAAKLAAKLGDREAVRRELELYEELASSSS"}, "B22": {"name": "il2ra_site1_3nfp_normal_mot_HHH_b1_03420_af2_000000029_0001_41_57_H_._HHH_b2_05734_af2_0001_0000300011_0000001_0 (protein)", "chain": "SSSSDLEKASKIAEEIIKLLSHGDPEEAERLLEELEELAKELGSELAKWLVEELEEAIKLRSSSS"}, "B23": {"name": "il2ra_site2_2erj_sap_29_mot_dcd9809507f71d420582ead1f1e1bbb3_0001_000000226_0001_37_50_H_._HHH_b1_02896_af2_0001_0000500038_0000001_0_0001 (protein)", "chain": "SSSSSSLHELYELANRLMHALSNGDEELLEELLEELEELAKELQSDTAREIVENIRRRLSSSSSS"}, "B24": {"name": "il2ra_site2_3nfp_sap_26_mot_HHH_b1_04264_000000089_0001_1_18_H_._cc38c158466f61ccbd7ce36cb6c4896f_0001_0001_0000100003_0000001_0_0001 (protein)", "chain": "SSSSSDVEELLEEAEELIEDGNPYEAAQVLLEAAELIARRGDEELARILLELFELLQRKGSSSSS"}},
  "note": "Some of the results follow.",
  "data": [
    {"biological_target": "il2ra, P01589", "experiment": "yeast display titration", "values": [
      {"binder": "B1", "apparent Kd": "inactive: no binding seen"},
      {"binder": "B2", "apparent Kd": "inactive: no binding seen"},
      {"binder": "B3", "apparent Kd": "inactive: no binding seen"},
      {"binder": "B4", "apparent Kd": "inactive: no binding seen"},
      {"binder": "B5", "apparent Kd": "inactive: no binding seen"},
      {"binder": "B6", "apparent Kd": "inactive: no binding seen"},
      {"binder": "B7", "apparent Kd": "inactive: no binding seen"},
      {"binder": "B8", "apparent Kd": "inactive: no binding seen"},
      {"binder": "B9", "apparent Kd": "inactive: no binding seen"},
      {"binder": "B10", "apparent Kd": "inactive: no binding seen"},
      {"binder": "B11", "apparent Kd": "inactive: no binding seen"},
      {"binder": "B12", "apparent Kd": "inactive: no binding seen"},
      {"binder": "B13", "apparent Kd": "inactive: no binding seen"},
      {"binder": "B14", "apparent Kd": "inactive: no binding seen"},
      {"binder": "B15", "apparent Kd": "inactive: no binding seen"},
      {"binder": "B16", "apparent Kd": "inactive: no binding seen"},
      {"binder": "B17", "apparent Kd": "inactive: no binding seen"},
      {"binder": "B18", "apparent Kd": "inactive: no binding seen"},
      {"binder": "B19", "apparent Kd": "inactive: no binding seen"},
      {"binder": "B20", "apparent Kd": "inactive: no binding seen"},
      {"binder": "B21", "apparent Kd": "inactive: no binding seen"},
      {"binder": "B22", "apparent Kd": "inactive: no binding seen"},
      {"binder": "B23", "apparent Kd": "inactive: no binding seen"},
      {"binder": "B24", "apparent Kd": "inactive: no binding seen"}
    ]}
  ]
}
